Data taken from PMC10163288.
Some of the results follow.

B1: il2ra_site2_3nfp_sap_18_mot_HHH_b1_04175_000000186_0001_44_58_H_._c0f0c6b645b03e3acbc3a7421e1f7935_0001_1_0001_0000300049_0000001_1_0001_af2pred_0001_af2pred (protein)
chain: SSSSSEEEERVRELIEEAKELLENGNPEEAKRALAEAVDLAKEAGNEELLLELYEILLKLLSSSS
B2: il2ra_site1_1z92_normal_mot_22aa8d8ad8dce7f663ea8fa348a52261_0001_000000005_0001_37_51_H_._d42de0cc81f4e0b3186ba921eb477610_0001_af2_0001_0000200010_0000001_0 (protein)
chain: SEEVEKIQELLKELDTPEALTLLRILERLAETAGNPEFALEQLKFALERLGSPELLRLLEELEER
B3: il2ra_site1_2b5i_normal_mot_HHH_b2_04910_000000118_0001_1_19_H_._HHH_b1_08078_0001_0000200004_0000001_0_af2pred_dldesign_0_af2pred (protein)
chain: SSSSSEVGAEILRLVEEANRLYQAGKEEEAKKLLEEALKLAKENNLNRYKKFVEACLKSLSSSSS
B4: il2ra_site2_3nfp_sap_12_mot_HHH_b2_00729_000000274_0001_42_55_H_._HHH_b1_04317_0001_0000100001_0000001_0_0001 (protein)
chain: SSSSDKAEEYLRIVLELAEEALELGDEYAVKSTLHVAKLAAHSNRDEEVEKQLREIEEALSSSSS
B5: il2ra_site1_1z92_sap_19_mot_HHH_b1_02241_000000292_0001_1_14_H_._HHH_b2_00689_0001_0001100033_0000001_0_0001 (protein)
chain: PEFLERDFERTLEFGIPPKDVAFVLLEALRSAGIPPEEVEELVRKVLERLLGDPEEAERVLERAK
B6: il2ra_site2_3nfp_sap_27_mot_HHH_b1_02422_000000114_0001_42_59_H_._934a834d9b8b770824478def2ff2f329_0001_0001_0000400062_0000001_0_0001 (protein)
chain: SSSDESEEIFEEAEKELRRLLEEGDRREASELTIEALRKLKELGDDELVLKLYAILAEALLSSSS
B7: il2ra_site2_3nfp_normal_mot_HHH_b1_05628_af2_000000064_0001_19_35_H_._HHH_b2_05903_af2_0001_0000800026_0000001_0 (protein)
chain: SSSSDEEEEELEELLKELRKAVEEGDEEKVEQLASRIALLAFELNDFEAFAEASELMRELISSSS
B8: il2ra_site2_2erj_sap_13_mot_HHH_b2_03493_000000046_0001_40_57_H_._HHH_b2_04319_0001_0000500045_0000001_0_0001_af2pred_0001_af2pred (protein)
chain: SSSSSSSEVEEEVERLLEEAERTPDPRRANNLLVRALFLAQKNNNDELLELVERVAEELSSSSSS
B9: il2ra_site2_2erj_normal_mot_HHH_b1_03609_af2_000000077_0001_42_55_H_._HHH_b1_00950_0001_0000200006_0000001_1 (protein)
chain: SSSSDVEELLEEAREATEEGDREAVEKLLSEASILAFRKNDFELWSLVSEVARELFRLLASSSSS
B10: il2ra_site2_3nfp_normal_mot_HHH_b2_07840_000000026_0001_18_34_H_._HHH_b1_07570_0001_0000600040_0000001_0 (protein)
chain: SSSSDEELEELLEEIEEALKNNDPEKVQRLLQEVTNLAFRRNDHEIFAAIIDLAELLAKLRSSSS

These binders were tested against il2ra, P01589 (assay: yeast display titration).

Apparent Kd, inactive:
B1 no binding seen
B2 no binding seen
B3 no binding seen
B4 no binding seen
B5 no binding seen
B6 no binding seen
B7 no binding seen
B8 no binding seen
B9 no binding seen
B10 no binding seen

2 records picked at random from the list so far:
Apparent Kd, inactive:
B5 no binding seen
B3 no binding seen
